Our source for the binding values is publication doi:10.1101/639948.

By UniProt entry, the sequences of proteins in these tests, tags left out.
UniProt Q8IXI1: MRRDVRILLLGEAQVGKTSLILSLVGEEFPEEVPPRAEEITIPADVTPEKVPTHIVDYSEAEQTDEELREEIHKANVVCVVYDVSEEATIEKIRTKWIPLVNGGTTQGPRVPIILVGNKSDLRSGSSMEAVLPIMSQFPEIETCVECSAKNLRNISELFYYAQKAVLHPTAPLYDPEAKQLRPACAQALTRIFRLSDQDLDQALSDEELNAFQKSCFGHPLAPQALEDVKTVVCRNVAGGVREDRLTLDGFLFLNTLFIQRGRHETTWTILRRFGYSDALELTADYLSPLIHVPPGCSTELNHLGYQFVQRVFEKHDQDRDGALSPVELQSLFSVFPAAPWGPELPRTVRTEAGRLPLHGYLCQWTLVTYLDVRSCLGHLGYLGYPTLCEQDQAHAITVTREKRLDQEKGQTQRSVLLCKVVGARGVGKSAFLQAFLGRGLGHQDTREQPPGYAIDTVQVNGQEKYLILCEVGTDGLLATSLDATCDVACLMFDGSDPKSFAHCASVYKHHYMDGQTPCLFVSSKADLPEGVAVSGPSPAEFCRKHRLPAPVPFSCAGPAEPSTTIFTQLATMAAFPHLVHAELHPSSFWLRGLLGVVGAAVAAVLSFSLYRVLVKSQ
UniProt Q8IXI2: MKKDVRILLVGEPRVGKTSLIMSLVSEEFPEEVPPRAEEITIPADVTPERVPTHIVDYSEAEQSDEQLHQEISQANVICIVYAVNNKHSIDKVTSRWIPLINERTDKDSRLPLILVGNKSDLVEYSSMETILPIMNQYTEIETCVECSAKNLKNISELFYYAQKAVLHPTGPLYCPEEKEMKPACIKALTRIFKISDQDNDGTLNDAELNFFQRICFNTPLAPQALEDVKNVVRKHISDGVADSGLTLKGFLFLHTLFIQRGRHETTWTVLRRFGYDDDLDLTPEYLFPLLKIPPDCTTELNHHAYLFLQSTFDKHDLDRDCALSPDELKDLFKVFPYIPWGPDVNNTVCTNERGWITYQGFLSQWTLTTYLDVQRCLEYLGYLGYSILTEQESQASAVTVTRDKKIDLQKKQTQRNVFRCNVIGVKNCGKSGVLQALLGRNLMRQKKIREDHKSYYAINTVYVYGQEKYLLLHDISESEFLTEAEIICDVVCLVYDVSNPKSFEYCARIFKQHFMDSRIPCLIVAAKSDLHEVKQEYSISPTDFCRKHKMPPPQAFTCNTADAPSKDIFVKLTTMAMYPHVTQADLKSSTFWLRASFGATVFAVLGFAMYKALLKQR
UniProt Q15388: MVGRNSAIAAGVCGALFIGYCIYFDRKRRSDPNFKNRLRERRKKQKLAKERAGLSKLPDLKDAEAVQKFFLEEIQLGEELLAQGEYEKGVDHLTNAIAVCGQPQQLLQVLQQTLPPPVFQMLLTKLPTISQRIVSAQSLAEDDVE

These are yes or no findings as the source states them, for the method shown. Binding seen in cells or lysates may run through a third protein.

One experiment deals with GFPMiro2 (UniProt Q8IXI1). As to the kind of experiment: co-IP.
The target of a further experiment is GFPMiro1 (UniProt Q8IXI2). Description: co-IP.

For the substance Tom20 (from UniProt Q15388 1-145), the binding result with GFPMiro2 and with GFPMiro1 was “no binding” each time.
